According to PubChem BioAssay AID1259354 (Paczesny and Yang Labs, IUPUI and University of Michigan, 2018):
Out of some 78,000 compounds screened, about 1,800 (2.3%) were called active. Inconclusive results, whose numbers are uncertain, are shown with a selection of clear calls. No stated cut-off is given here; in the data, active means inhibition above about 30%; inconclusive means mostly about 10% to 28%; inactive means weaker than that.

Chains of the proteins cited; added tags and fusions are not shown. Lines headed by an entry give the natural chain unless they say otherwise; changes in a name come on top.
UniProt Q01638: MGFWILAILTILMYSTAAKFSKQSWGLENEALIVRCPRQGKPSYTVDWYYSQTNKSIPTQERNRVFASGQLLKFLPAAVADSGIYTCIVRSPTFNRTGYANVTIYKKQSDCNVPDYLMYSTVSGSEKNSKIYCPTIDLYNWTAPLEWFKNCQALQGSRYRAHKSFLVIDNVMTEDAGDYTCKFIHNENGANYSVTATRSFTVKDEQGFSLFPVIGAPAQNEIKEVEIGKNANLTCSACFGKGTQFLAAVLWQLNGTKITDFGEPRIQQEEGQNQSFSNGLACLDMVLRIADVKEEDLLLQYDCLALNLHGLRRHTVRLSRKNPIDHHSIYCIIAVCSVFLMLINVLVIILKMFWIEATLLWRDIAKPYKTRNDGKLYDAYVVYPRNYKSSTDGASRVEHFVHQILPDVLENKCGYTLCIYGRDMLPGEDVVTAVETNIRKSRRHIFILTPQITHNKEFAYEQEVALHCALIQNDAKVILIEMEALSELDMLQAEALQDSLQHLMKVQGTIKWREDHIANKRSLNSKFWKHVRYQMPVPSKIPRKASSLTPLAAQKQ

The molecules below were run against Interleukin-1 receptor-like 1 (Homo sapiens) (UniProt Q01638) (assay: blocks human ST2 binding to IL-33, primary screen, biochemical, AlphaLISA (AID 1259354)). Details: AlphaLISA ST2-Fc/biotin-IL-33 interaction, 1 h; at 17 µM, hits give high values.

| Structure (SMILES) | inhibition |
| --- | --- |
| COc1ccc2[nH]c(C)c(CN3CCOCC3)c(=O)c2c1 | inconclusive: 16% |
| CCOC(=O)C1(CCOc2ccccc2)CCCN(C(=O)c2ccc(OC)o2)C1 (configuration not stated) | inactive |
| COCCN1C(=O)C(=O)C(=C(O)c2ccc(OC)cc2)C1c1cc(OC)c(OC)c(OC)c1 (configuration not stated) | inconclusive: 17% |
| Cn1c(N2CCCCC2)nc2c1c(=O)n(Cc1ccc(Cl)c(Cl)c1)c(=O)n2C | inconclusive: 16% |
| CC(C)CN(Cc1ccsc1)C(=O)c1ccc(-n2cnnc2)cc1 | inconclusive: 12% |
| Nc1cccc(NC(=O)c2cccc(Cl)c2)c1 | inconclusive: 15% |
| COC(=O)c1cc(OCC2CCC2)cc(C(=O)N2CC(c3cccnc3)C2)c1 | inconclusive: 12% |
| COc1ccccc1CN1CC(C(=O)NCCOC(C)C)CCC1=O (configuration not stated) | inconclusive: 20% |
| CCc1cnc(C)nc1N1CCCC(n2cc(C(=O)NC3CCCC3)nn2)C1 (configuration not stated) | inconclusive: 15% |
| Cc1ccc(N2NC(=O)/C(=C/c3ccccc3OCC#N)C2=O)cc1Cl | inactive |
| CCn1ncc(S(=O)(=O)N2CCCC(c3nn(C)c(=O)n3CC)C2)c1C (configuration not stated) | inactive |
| CC(C)(C)n1cnc2cc(NCc3cccc4ccccc34)ccc21 | inconclusive: 12% |
| O=S1(=O)CCN2C=C(Br)C=C(Br)C2=N1 | inconclusive: 10% |
| Cc1nc2ccccc2n1CCC(=O)N1CCn2c(C(N)=O)cnc2C1 | inconclusive: 19% |
| O=C(Nc1ccccc1C(=O)NCC1CCCO1)c1ccc(Cl)cc1Cl (configuration not stated) | inconclusive: 20% |
| CSc1sc(SC)c(/C=N/O)c1/C=N\O | inconclusive: 10% |
| CC1=NN(c2ccccc2)C(=O)/C1=C\c1ccc(OCc2ccccc2)cc1 | active: 32% |
| COc1cccc(CN2CCCC3(CCN(Cc4cnn(C(C)C)c4)C3)C2)c1OC (configuration not stated) | inactive |
| O=c1oc(/C=C/c2ccco2)nc2sc3c(c12)CCCCC3 | active: 36% |
| OC(COCc1ccc(Cl)cc1)CN1CCN(c2ccccc2F)CC1 (configuration not stated) | inconclusive: 12% |
| CC(=O)N(c1ccc2oc3c(c2c1)CCCC3)S(=O)(=O)c1ccc(F)cc1 | inconclusive: 14% |
| CCOc1cc2c(cc1OCC)C1C(C(=O)NCCC(C)C)c3ccccc3C(=O)N1CC2 (configuration not stated) | inactive |
| COc1ccccc1N1C(=O)C2CC=CCC2C1=O (configuration not stated) | inactive |
| Cc1ccc2nc(-c3c[nH]c4ccccc34)c(NC3CCCC3)n2c1 | inactive |
| COc1ccc(CCc2nnc(CCC(=O)N3CCC(c4ccc(F)cc4)C3)o2)cc1 (configuration not stated) | inconclusive: 22% |

A draw from above in order of heavy-atom count, rising.

| Structure (SMILES) | inhibition |
| --- | --- |
| CSc1sc(SC)c(/C=N/O)c1/C=N\O | inconclusive: 10% |
| Cc1ccc(N2NC(=O)/C(=C/c3ccccc3OCC#N)C2=O)cc1Cl | inactive |
| CC(=O)N(c1ccc2oc3c(c2c1)CCCC3)S(=O)(=O)c1ccc(F)cc1 | inconclusive: 14% |
| CCOC(=O)C1(CCOc2ccccc2)CCCN(C(=O)c2ccc(OC)o2)C1 (configuration not stated) | inactive |

Next part

| Structure (SMILES) | inhibition |
| --- | --- |
| Cc1ccc(-c2nc(S(=O)(=O)c3ccc(C)cc3)c(N(C)C)o2)cc1 | inconclusive: 12% |
| COc1ccc(C(=O)ONc2ccc(N=O)cc2)c(OC)c1 | inconclusive: 25% |
| CCC(=O)N1CCc2cc(S(=O)(=O)NC(C(=O)NCC3CCCO3)C(C)C)ccc21 (configuration not stated) | inactive |
| COCC(=O)N(c1ccc(OC)cc1)C1C=CS(=O)(=O)C1 (configuration not stated) | inactive |
| CN1[C@@H](CCC(=O)N2CCN(c3ccccn3)CC2)CNC(=O)[C@@H]2[C@H]1CCN2Cc1ncc[nH]1 | inactive |
| O=c1[nH]nc(CCn2ccnc2-c2ccc(-n3ccnc3)cc2)[nH]1 | inactive |
| N/C(=N/OC(=O)c1ccccc1F)c1ccccn1 | inactive |
| COc1ccc(Nc2cc(C)nc(N3CCN(S(=O)(=O)c4ccccc4Cl)CC3)n2)cc1 | inconclusive: 21% |
| CCC(NC(=O)c1cc(OC)ccc1OC1CCN(C(C)=O)CC1)c1ccncc1 (configuration not stated) | inconclusive: 20% |
| CC(C)n1cc(C(=O)N(CC2CCN(Cc3ccccc3F)CC2)CC2CCCO2)cn1 (configuration not stated) | inconclusive: 18% |
| O=C1CC(Nc2ccccc2)C(=O)N1c1cccc(Cl)c1 (configuration not stated) | inconclusive: 10% |
| CCNc1ncc(CN2CCn3nc(C(=O)N4CCCC4)cc3C2)cn1 | inconclusive: 13% |
| Cc1cc([N+](=O)[O-])nn1CCCC(=O)Nc1cc(Oc2ccc3c(c2)CCC3)cc([N+](=O)[O-])c1 | inconclusive: 10% |
| NNC(=O)c1ccc(NS(=O)(=O)c2ccccc2)cc1 | inconclusive: 23% |
| COCC1(C(=O)NCCn2c(C)cc3ccccc32)CCC1 | inconclusive: 18% |
| Cc1cccc(N2C(=O)S/C(=C\c3ccc(O)cc3)C2=O)c1 | inconclusive: 17% |
| O=C(Nc1cccc(F)c1)c1cccc(F)c1F | inactive |
| Cc1nn(C)c(Cl)c1S(=O)(=O)N1CCOC(C(F)(F)F)C1 (configuration not stated) | inactive |
| NS(=O)(=O)c1ccc(CCNC(=O)c2ccc(C#CC3(O)CCCCC3)cc2)cc1 | inconclusive: 10% |
| Cc1noc(C)c1C(=O)NC(C)CC1=CCCN(CCCF)C1 (configuration not stated) | inactive |
| Cc1cc(C)n(C2CCN(Cc3cccc(Cn4cccn4)c3)C2)n1 (configuration not stated) | inconclusive: 20% |
| COc1cccc(CN2CCC(O)CC2)c1 | inconclusive: 10% |
| O=C(CCN1CCCO1)N1CCC(c2n[nH]c(=O)n2-c2ccccc2)CC1 | inactive |
| COCC(=O)N[C@H]1C[C@H]2C(=O)NC[C@@H](CCC(=O)N3CCN(c4ccccn4)CC3)N2C1 | active: 51% |
| CN(C)CCNC(=O)CN1C(=O)/C(=C\c2ccc(Cl)cc2)Sc2ccccc21 | inconclusive: 18% |

| Structure (SMILES) | inhibition |
| --- | --- |
| Oc1c(C(Nc2ccccn2)c2ccc(Cl)cc2)ccc2cccnc12 (configuration not stated) | inconclusive: 23% |
| Cc1cc(N2CCN(C)CC2)nc2ccc(NC(=O)CCC(=O)N3CCCC3)cc12 | inactive |
| COc1cc(C(=O)N=c2sc3ccccc3n2C)cc(OC)c1OC | inconclusive: 17% |
| O=C(Nc1ccc(N2CCOCC2)cc1)c1ccccc1 | inactive |
| COc1ccccc1NC(=O)CSc1nc2ccccc2o1 | inactive |
| O=C(Nc1c2c(nn1-c1cccc(Cl)c1)CS(=O)C2)c1ccc(F)cc1 (configuration not stated) | inactive |
| COc1ccc(-c2csc(NC(=O)c3ccc(Br)s3)n2)cc1OC | inconclusive: 27% |
| Cc1ccccc1Cn1cc(NC(=O)c2cc(-c3ccc4c(c3)OCO4)on2)cn1 | inactive |
| CCOc1ccc(C2C(C(=O)Nc3ccc(C)cn3)=C(C)NC3=C2C(=O)CCC3)cc1 (configuration not stated) | inconclusive: 17% |
| O=C1OC(c2ccccc2Br)=N/C1=C\C=C\c1ccccc1 | inconclusive: 18% |
| Cc1cc(C)cc(OCC(O)CN2CCN(Cc3ccc4c(c3)OCO4)CC2)c1 (configuration not stated) | inconclusive: 13% |
| O=C(NCc1ccccc1)C(=O)NC1CC1 | inactive |
| CCNc1ncc(C(=O)N(C)C2CCCc3ccccc32)cn1 (configuration not stated) | inconclusive: 16% |
| CCCOc1ccc(C(=O)Nc2cccc(-c3nc4ccccc4o3)c2)cc1 | inconclusive: 13% |
| CCCOc1ccc(CC(=N)N)cc1 | inactive |
| COC(=O)CSC1=C(C#N)C(c2ccccc2)CC(=O)N1 (configuration not stated) | inconclusive: 20% |
| CN(CC1COCCO1)c1nc(-c2cccnc2)nc2c1cnn2C (configuration not stated) | active: 34% |
| COc1cccc(OC)c1OC | inactive |
| CC1(C)CC(=O)C2=C(C1)Nc1cc(C(=O)c3ccccc3)ccc1NC2c1ccc2c(c1)OCO2 (configuration not stated) | inactive |
| O=C(CCn1ccc(=O)[nH]c1=O)N1CCCC2(C=Cc3ccccc3O2)CC1 (configuration not stated) | inactive |
| Cc1ccc(NCCCNC(=O)C2CCN(C(C)C)CC2)nc1 | inconclusive: 12% |
| O=c1oc2c(-c3ccc(Br)cc3)cc(O)cc2s1 | inconclusive: 23% |
| OCc1ccc(-c2c(-c3ccccc3)ncn2Cc2ccc3c(c2)OCO3)o1 | inactive |
| Fc1ccc(-c2nccn2CCCc2nn[nH]n2)c(Cl)c1 | inactive |
| COc1ccccc1CNS(=O)(=O)c1cccc2cccnc12 | inconclusive: 14% |

Two of the compounds above, as labelled records:
CCCOc1ccc(C(=O)Nc2cccc(-c3nc4ccccc4o3)c2)cc1
  inhibition: inconclusive: 13%
CCCOc1ccc(CC(=N)N)cc1
  inhibition: inactive

(cont.)

| Structure (SMILES) | inhibition |
| --- | --- |
| COc1ccc(-c2nc3sccn3c2Nc2ccc3c(c2)OCO3)cc1 | active: 30% |
| CN(CC(=O)N1CCCc2c1c(=O)oc1ccc(OCc3ccccc3)cc21)C1CCCCC1 | inconclusive: 20% |
| CCN(C/C=C/c1ccccc1)C(=O)c1ccc(C#CC(C)(C)O)o1 | inconclusive: 15% |
| N/C(=N/OC(=O)N1c2ccccc2Sc2ccccc21)c1ccc([N+](=O)[O-])cc1 | inconclusive: 23% |
| COc1cccc(Nc2nc(-c3ccc(OC)c(F)c3)cs2)c1 | inconclusive: 19% |
| CN1CC2(CCCN(C(=O)c3cnc4cccnn34)C2)OC1=O (configuration not stated) | inactive |
| Cc1ccccc1-c1cc(O)c2c(c1)CN(C(=O)c1ccnc(N)c1)CCO2 | inconclusive: 17% |
| CN(C(=O)c1cc(S(N)(=O)=O)ccc1F)C1Cc2ccccc2C1 | inconclusive: 13% |
| CC1=C(C(=O)Nc2ccc(Cl)cc2)C(c2ccc(Cl)cc2Cl)NC(=O)N1 (configuration not stated) | inactive |
| O=C(Nc1ccccc1F)c1ccc(Cl)cc1 | inactive |
| CCOC(=O)C1(CCOc2ccccc2)CCN(Cc2nc3c(s2)CCCC3)CC1 | inconclusive: 11% |
| Cc1ccc(N2C(=O)C(N3C(=O)c4ccccc4C3=O)C2c2ccc(Br)s2)cc1 (configuration not stated) | inactive |
| COc1ccc(C2C(C(=O)OC3CCCCC3)=C(C)Nc3ncnn32)cc1Br (configuration not stated) | inactive |
| CSc1ccc(-c2nc(SCC(=O)Nc3nccs3)c(-c3ccccc3)[nH]2)cc1 | inactive |
| O=[N+]([O-])c1ccc2nc(/C=C/c3ccco3)[nH]c2c1 | active: 32% |
| COc1ccc2cc(C3CN(c4cncc(C(=O)N(C)C)n4)CCO3)ccc2c1 (configuration not stated) | inconclusive: 17% |
| CCC(=O)Nc1ccc(C)cc1-c1c(Cl)cccc1OC | inconclusive: 14% |
| NC(=O)c1cncc(N2CCN(Cc3ccc(-n4ccnc4)cc3)CC2)n1 | inactive |
| CC(C)Nc1nc(Cl)nc(NC(C)(C)CO)n1 | inconclusive: 11% |
| Cc1ccccc1C(NC(=O)Cn1[nH]c(=O)ccc1=O)c1ccncc1 (configuration not stated) | inconclusive: 10% |
| CC(C)N1CC2(c3ccccc3)CN(C(C)C)CC(c3ccccc3)(C1)C2=O | inconclusive: 16% |
| Cc1cc(C)c(S(=O)(=O)NCc2ccc(S(N)(=O)=O)cc2)c(C)c1 | inactive |
